The list shows a part of the results. Shown are side measurements of this screen, not its main read-out; they come without a call. Compounds called inactive in the main read-out are mostly missing here. The note in brackets gives the kind of curve behind each potency; many fits are weak.
Assay: qHTS Assay to Find Inhibitors of Chronic Active B-Cell Receptor Signaling
Conditions: ABC-DLBCL IkBa-CBG/CBR reporter, luminescence ratio (green luciferase fused to IkBa over red control in TMD8 lymphoma cells), 4 h
Summary of the method: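 TMD8 human ABC-DLBCL cells with doxycycline-inducible IκBα–green luciferase fusion and unfused red luciferase, in 0.5% FBS medium; compounds up to 46 uM, 4 h at 37C. Green/red luminescence ratio, filter-overlap corrected, fitted to concentration-response curves.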

[1] = measured here: CBR red luminescence, cell number
[2] = measured here: IkBa-CBG green luminescence

Row | Compound | AC50 [1] | AC50 [2]
1 | Fc1ccccc1CNCCC(Cc1ccccc1)c1ccc2c(c1)OCO2 (centres undefined) | 20.6 µM [falling, partial curve] | –
2 | CCNC(=S)N/N=C1\C(=O)c2cccc3cccc1c23 | 13 µM [rising, single point] | –
3 | COC(=O)c1cc(-c2ccc(Cl)cc2Cl)n[nH]1 | 15.8 µM [rising, partial curve, poor fit] | –
4 | COc1cccc(C(=O)NC(=S)Nc2nnn(C)n2)c1 | 20.6 µM [falling, partial curve] | –
5 | Cc1nn(C(=O)c2ccoc2C)c(N)c1-c1ccccc1 | 0.366 µM [rising, full curve] | –
6 | CCCCN(CCCC)C(=O)C1(P(=O)(c2ccccc2)c2ccccc2)CCC1 | 17.8 µM [falling, partial curve, poor fit] | –
7 | CCCC(=O)Nc1ccc(N2CCN(C(=O)c3cccs3)CC2)cc1 | 20.6 µM [falling, partial curve, poor fit] | –
8 | CC(=O)N(C)C1(c2nnnn2CCOC(=O)Nc2cccc3ccccc23)CCCC1 | 0.92 µM [rising, partial curve] | –
9 | O=c1c2c(nc3cc(-c4ccccc4)[nH]n13)CCC2 | 5.01 µM [falling, full curve, poor fit] | –
10 | COc1ccc(-c2oc3cccnc3c2/C=C/c2ccc(OC)c(OC)c2)cc1 | 14.1 µM [falling, partial curve] | –
11 | O=C(NCCc1ccccn1)c1ccc2nc(Cc3ccccc3F)oc2c1 | 3.55 µM [rising, partial curve, poor fit] | –
12 | COc1cc(C(=O)CCN2CCC(c3ccccc3)C2)cc(OC)c1OC (centres undefined) | 20 µM [falling, single point] | 8.91 µM [rising, partial curve, poor fit]
13 | CCSc1nnc(NC(=O)/C=C/c2ccco2)s1 | 5.01 µM [falling, full curve] | –
14 | O=C(Nc1cc(S(=O)(=O)N2CCOCC2)ccc1Cl)c1cc2ccccc2o1 | 1.46 µM [rising, partial curve, poor fit] | –
15 | COc1ccc(-c2nn(-c3ccccc3)cc2C(=O)O)cc1 | 35.5 µM [falling, single point] | –
16 | CCOCCCNC(=O)C(c1ccc(OC)cc1)N(Cc1ccc2c(c1)OCO2)C(=O)c1cnccn1 (centres undefined) | 6.31 µM [rising, single point] | –
17 | COc1cccc(/C=N/Nc2ccc([N+](=O)[O-])cn2)c1O | 2.24 µM [falling, full curve] | –
18 | Cc1ccc(C(=O)NC(C)c2ccncc2)o1 (centres undefined) | 2.24 µM [rising, full curve] | –
19 | O=C(CN(c1ccccc1)S(=O)(=O)c1ccccc1[N+](=O)[O-])NN=C1CCCCCCC1 | 35.5 µM [falling, single point] | –
20 | COc1cc(/C=N/NC(=S)NCCN2CCOCC2)cc(OC)c1O | 0.116 µM [rising, full curve, poor fit] | 16.4 µM [falling, partial curve, poor fit]
21 | COc1ccc(Cl)cc1NC(=O)c1cc(S(=O)(=O)N(C)Cc2ccccc2)ccc1F | 35.5 µM [rising, single point] | –
22 | Cc1cnc(C)c(N2CCN(Cc3cn(C)nc3-c3cccc(Cl)c3)CC2)n1 | 0.891 µM [rising, full curve, poor fit] | –

Pulled one by one from the entries so far, two records:
Row | Compound | AC50 [1] | AC50 [2]
7 | CCCC(=O)Nc1ccc(N2CCN(C(=O)c3cccs3)CC2)cc1 | 20.6 µM [falling, partial curve, poor fit] | –
6 | CCCCN(CCCC)C(=O)C1(P(=O)(c2ccccc2)c2ccccc2)CCC1 | 17.8 µM [falling, partial curve, poor fit] | –

Going on with the list.

Row | Compound | AC50 [1] | AC50 [2]
23 | COc1ccc(Cl)cc1S(=O)(=O)NCc1cccnc1 | 29.1 µM [rising, single point] | –
24 | Cc1ccc(-c2cc(C(=O)N/N=C/c3ccccc3O)n[nH]2)o1 | 0.794 µM [falling, full curve] | –
25 | Cn1cc(/C=N\NC(=O)c2cccs2)c2ccccc21 | 12.6 µM [falling, partial curve] | –
26 | Cc1cccc(-n2cnc3cc(C(=O)N4CCc5ccccc54)ccc32)c1 | 13 µM [falling, partial curve] | –
27 | COc1ccc(C=O)cc1OS(=O)(=O)c1ccccc1[N+](=O)[O-] | 3.66 µM [rising, single point] | –
28 | Cn1ccc(C(=O)N/N=C/c2c[nH]c3ccccc23)n1 | 2.82 µM [falling, full curve, poor fit] | –
29 | Cc1cc(NCc2ccccn2)ccc1Br | 8.91 µM [rising, partial curve] | –
30 | Cc1cnc(NC(=O)C2COc3ccccc3O2)s1 (centres undefined) | 7.08 µM [falling, partial curve] | –
31 | CC(=O)C1=C(S(=O)(=O)c2ccc(C)cc2)CS(=O)(=O)C1 | 22.4 µM [falling, single point] | –
32 | c1ccc(CN2CCN(CCOCCOc3cccc4ccccc34)CC2)cc1 | 35.5 µM [falling, single point] | –
33 | Cc1ccc(-c2cc(-c3ccccc3)no2)c(O)c1 | 2.06 µM [falling, partial curve] | –
34 | O=C(/C=C/Nc1ccccc1C(=O)O)c1cccs1 | 29.1 µM [falling, single point] | –
35 | CCSc1nncn1/N=C/c1ccc(OC)c(OC)c1 | 16.4 µM [rising, single point] | 16.4 µM [falling, partial curve, poor fit]
36 | Cc1cc(=O)n(-c2ccc(Cl)cc2)c(=O)[nH]1 | 12.6 µM [rising, partial curve] | –
37 | O=C(c1ccoc1)N1CCC2(CC1)Oc1ccc(Cl)cc1C(=O)C21CC(c2cccnc2)=NO1 (centres undefined) | 0.794 µM [rising, partial curve, poor fit] | –
38 | CCCNS(=O)(=O)c1ccc(OCC(=O)Nc2ccc3c(c2)OCCO3)cc1 | 29.1 µM [falling, single point] | –
39 | O=c1nc(N2CCOCC2)ccn1-c1nc(-c2ccccc2)oc1-c1ccccc1 | 10 µM [rising, partial curve, poor fit] | –
40 | O=C(Nc1nnc(-c2ccncc2)o1)c1ccc(Br)s1 | 2.82 µM [falling, full curve] | –
41 | O=C(Nc1ccc(N2CCOCC2)cc1)c1ccc2c(c1)OCO2 | 3.55 µM [falling, partial curve, poor fit] | –
42 | CC(C)c1ccc(N2CCN(C(=O)c3ccccc3NC(=O)/C=C(\C(=O)O)c3ccccc3)CC2)cc1 | 5.8 µM [falling, partial curve, poor fit] | –
43 | Cc1cccc2nc(-c3ccccc3)nc(N[C@@H](CO)c3ccccc3)c12 | 20.6 µM [falling, partial curve] | –
44 | CCc1nc2cccnc2n1-c1ccc(CC(=O)NCCOC)cc1 | 7.08 µM [falling, partial curve] | –

Record cards, as listed above. Order of values: AC50 [1] | AC50 [2]
COc1ccc(Cl)cc1S(=O)(=O)NCc1cccnc1 as listed: 29.1 µM [rising, single point] | –
Cc1ccc(-c2cc(-c3ccccc3)no2)c(O)c1 as listed: 2.06 µM [falling, partial curve] | –

The list continues:

Row | Compound | AC50 [1] | AC50 [2]
45 | Cc1ccc(OCc2csc(N)n2)cc1 | 28.2 µM [falling, single point] | –
46 | O=C(CSc1nc(-c2ccccc2)nc2ccccc12)Nc1nccs1 | 0.316 µM [falling, full curve, poor fit] | –
47 | COc1ccc(C(=O)Sc2nncc3ccccc23)cc1 | 11.2 µM [falling, single point] | –
48 | COc1ccc2nc3n(c(=O)c2c1)-c1ccc(Cl)cc1C(=O)NC3Cc1ccccc1 (centres undefined) | 20.6 µM [rising, partial curve, poor fit] | –
49 | O=C(O)c1nnn(-c2cccc(C(F)(F)F)c2)c1-c1ccccc1 | 22.4 µM [rising, single point] | –
50 | Cc1ccc(S(=O)(=O)CC(=O)NCc2ccc(Cl)cc2)cc1 | 6.51 µM [rising, single point] | –
51 | CCOC(=O)C1=C(C)N(C)C(C)=C(C(=O)OCC)C1c1ccc(C(=O)OC)cc1 | 0.651 µM [rising, partial curve, poor fit] | –
52 | COc1ccc(-c2noc(CN(C)S(=O)(=O)c3ccc(C)cc3)n2)cc1 | 29.1 µM [rising, single point] | –
53 | COC(=O)CCC(=O)N1CCCC(CO)(Cc2ccccc2)C1 (centres undefined) | 11.2 µM [rising, partial curve, poor fit] | –
54 | CCCCCCC(=O)OCC(=O)c1ccc2c(c1)NC(=O)CO2 | 2.82 µM [rising, full curve, poor fit] | –
55 | COc1ccc(CN2CSC(=S)N(Cc3ccc(OC)cc3)C2)cc1 | – | 25.1 µM [falling, single point]
56 | COc1ccccc1-c1n[nH]c(=S)o1 | 0.517 µM [rising, partial curve, poor fit] | –
57 | O=C(CN1CCCc2ccccc21)N/N=C/c1ccccc1O | – | 7.31 µM [falling, partial curve]
58 | O=C(Nc1ccccc1C(=O)O)c1cc(S(=O)(=O)NCc2ccccc2)ccc1Cl | 0.398 µM [falling, full curve] | –
59 | Cc1cc([N+](=O)[O-])cnc1NC(C)c1ccccc1 (centres undefined) | 35.5 µM [falling, partial curve, poor fit] | –
60 | COC(=O)C1=C(C)N(c2ccc(OC)cc2)C(=O)/C1=C\c1cccs1 | 18.4 µM [rising, partial curve, poor fit] | –
61 | CCS(=O)(=O)n1nc(-c2ccc(Cl)cc2)nc1N | 1.46 µM [rising, full curve] | –
62 | CSc1cccc(NS(=O)(=O)c2ccc3c(c2)oc(=O)n3C)c1 | 3.66 µM [rising, single point] | –
63 | O=C(O)c1cc(-c2ccc(-c3ccc(F)cc3)o2)nc2ccccc12 | 11.2 µM [falling, partial curve, poor fit] | –
64 | Nc1nc(NC(=O)c2cccs2)nn1-c1ccccc1 | 2 µM [falling, full curve] | –
65 | COc1cccc(NC(=O)CSc2c3c(nc4ccccc24)CCCC3)c1 | 20.6 µM [falling, partial curve] | –
66 | CCCn1nc(C(=O)Nc2nc3ccccc3[nH]2)c2ccccc2c1=O | 20.6 µM [falling, partial curve] | –

— PubChem BioAssay AID493014 (National Center for Advancing Translational Sciences (NCATS), 2011)
